Results deposited as PubChem BioAssay AID1259308 (NCATS, 2017)
Test: 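Candidate targets for better recombinant protein yield in mammalian cells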 (primary screen). Cells: human HEK293 embryonic kidney cells stably expressing firefly luciferase (HEK-CMV-Luc2-Hygro). Knock-down reagent: single siRNA against human genes, 0.8 pmol siRNA per well. Duration: 72 h. Read-out: 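Reporter luminescence and viable-cell signal on separate replicate plates, given as percent of non-targeting control and median/MAD z-scores, plus per-cell luciferase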. Direction: total luciferase, z-score and total luciferase, % of control: higher = more reporter protein produced. Active means: 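Active when the median/MAD z-score for overall luciferase is greater than 3; a gene was taken forward for validation with new siRNAs if at least two of its three siRNAs passed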. Meaning of the calls: active = raised luciferase; inactive = no rise.
Shown is one part, drawn at random, of about 59,000 reagents tested. About 1,510 of them (2.6%) count as active. 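Calls use total luciferase alone and ignore viability, so some active siRNAs may act by altering cell number.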 A number with no mark means an inactive call. The numbers tell different reagents against one gene apart. Further read-outs or replicates are left out here. Reagent sequences are not shown.

Gene | siRNA no. | total luciferase, z-score | total luciferase, % of control
LSR (lipolysis stimulated lipoprotein receptor) | 1 | 1.71 | 116
LSR (lipolysis stimulated lipoprotein receptor) | 2 | 0.0765 | 83.4
LSR (lipolysis stimulated lipoprotein receptor) | 3 | 0.897 | 99.7
SLCO2A1 | 1 | -0.886 | 64.3
SLCO2A1 | 2 | -0.0614 | 80.7
SLCO2A1 | 3 | 0.562 | 93.1
ABCF2 (ATP binding cassette subfamily F member 2) | 1 | -0.721 | 67.5
ABCF2 (ATP binding cassette subfamily F member 2) | 2 | -0.225 | 77.4
ABCF2 (ATP binding cassette subfamily F member 2) | 3 | -1.1 | 60
IFT140 (intraflagellar transport 140) | 1 | 1.53 | 112
IFT140 (intraflagellar transport 140) | 2 | 0.183 | 85.5
IFT140 (intraflagellar transport 140) | 3 | -0.521 | 71.5
QRICH1 (glutamine rich 1) | 1 | 1.23 | 106
QRICH1 (glutamine rich 1) | 2 | 1.19 | 106
QRICH1 (glutamine rich 1) | 3 | -0.465 | 72.6
SMAD2 (SMAD family member 2) | 1 | -2.19 | 38.4
SMAD2 (SMAD family member 2) | 2 | -0.25 | 76.9
SMAD2 (SMAD family member 2) | 3 | -2.77 | 26.9
CKAP2L (cytoskeleton associated protein 2L) | 1 | 2.92 | 140
CKAP2L (cytoskeleton associated protein 2L) | 2 | -0.434 | 73.3
CKAP2L (cytoskeleton associated protein 2L) | 3 | -1.51 | 51.9
TIAM1 (TIAM Rac1 associated GEF 1) | 1 | -0.684 | 68.3
TIAM1 (TIAM Rac1 associated GEF 1) | 2 | -0.313 | 75.7
TIAM1 (TIAM Rac1 associated GEF 1) | 3 | -1.13 | 59.5
PHF11 (PHD finger protein 11) | 1 | 3.44 (active) | 150
PHF11 (PHD finger protein 11) | 2 | -0.000798 | 81.9
PHF11 (PHD finger protein 11) | 3 | -0.107 | 79.8
PKD2 (polycystin 2, transient receptor potential cation channel) | 1 | 0.352 | 88.9
PKD2 (polycystin 2, transient receptor potential cation channel) | 2 | -0.659 | 68.8
PKD2 (polycystin 2, transient receptor potential cation channel) | 3 | 1.6 | 114
FAM50B (family with sequence similarity 50 member B) | 1 | -0.986 | 62.3
FAM50B (family with sequence similarity 50 member B) | 2 | -1.19 | 58.1
FAM50B (family with sequence similarity 50 member B) | 3 | -0.461 | 72.7
UBTFL7 (UBTF like 7 (pseudogene)) | 1 | -1.71 | 47.9
UBTFL7 (UBTF like 7 (pseudogene)) | 2 | -0.697 | 68
UBTFL7 (UBTF like 7 (pseudogene)) | 3 | 1.47 | 111
SLC12A3 | 1 | 0.289 | 87.6
SLC12A3 | 2 | 0.0172 | 82.2
SLC12A3 | 3 | -0.239 | 77.1

5 successive entries already listed:
Gene | siRNA no. | total luciferase, z-score | total luciferase, % of control
IFT140 (intraflagellar transport 140) | 3 | -0.521 | 71.5
QRICH1 (glutamine rich 1) | 1 | 1.23 | 106
QRICH1 (glutamine rich 1) | 2 | 1.19 | 106
QRICH1 (glutamine rich 1) | 3 | -0.465 | 72.6
SMAD2 (SMAD family member 2) | 1 | -2.19 | 38.4
